The record followed here is patent publication US20090036368A1, “Therapeutic Combination” (HAMLET PHARMA AB, priority 2005, published 2009).

This assay concerns Jurkat cells. The experiment in a line: subG1 population / DNA fragmentation by flow cytometry after PI staining. Particulars: pre-treated with TSA 100 ng/ml or SAHA 2.5 μM for 2 hours, HAMLET 1 hour. Format: cell-based. The procedure:
Cell Cycle Analysis by cytometry—Cells were harvested, washed with PBS and then fixed in suspension in 75% cold ethanol at 4° C. for 2 hours at least. The samples were then centrifuged, washed with PBS, and treated with 0.25% triton X-100 for 10 minutes at room temperature. The cells were washed again, resuspended in 2.5 μg/ml of PI and 250 μg/ml Rnase A in PBS, and incubated at 4° C. overnight prior to measurement. Cellular fluorescence was measured using the Facscalibur flow cytometry (Becton Dickinson, San Jose, Calif.). The simple-cell populations were determinated on the basis of their fluorescence-intensity values FL2-A and FL2-W.
The effects of HAMLET on DNA fragmentation were compared between untreated cells and those pre-treated with TSA to increase acetylation. Sub G0/G1 DNA fragmentation was quantified by flow cytometry using the methodology as described in Example 1.
Cells in medium were used as controls.

As for `O=C(CCCCCCC(=O)Nc1ccccc1)NO` [SAHA, suberoylanilide hydroxamic acid], the “HAMLET-induced DNA fragmentation after HDAC inhibitor pre-treatment” value was “enhanced”.
